Experimental data from patent US7214766B2 (priority 1998, dated 2007).

Assay: peptide made by a vendor
Details: whole synthesis, VYDAC reverse phase C8 column, 10–90% acetonitrile gradient over 34 minutes, 1.5 ml per minute

Substance	final HPLC purity
ILKGFPGFPRRK	greater than 95% pure
ILPFKFPFFPFRR	greater than 95% pure
Ile Leu Pro Trp Lys Trp Pro Trp Trp Pro Trp Arg Arg	greater than 95% pure
RRWPWWPWKWPLI	greater than 95% pure
RRWPWWPWKWPLIGGGYDPAPPPPPP	greater than 95% pure
SRRWPWWPWKWPLI	greater than 95% pure

The same purity stands for every peptide and may come from a single statement. No end group written: not given here.
